Values from PubChem BioAssay AID504808 (Drosophila RNAi Screening Center, 2011)
The deposit covers about 21,000 reagents; below is an unselected part of those with a known target gene and a result. Over the whole deposit, 18 (0.084%) are marked active. 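Raw counts without plate normalisation, one of two replicates; the ratio scores behind the calls were not deposited.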 Entries without a mark were called inactive. Reagents against one gene are numbered here. Reagent sequences are not shown. The record does not give: the amount of reagent, the time to read-out.

- Screen: 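Chromatin factors that keep E2F targets switched off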 (primary screen)
- Cell system: Drosophila S2 cells
- Knock-down reagent: long dsRNA against Drosophila genes
- Detection: 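Dual luciferase plate measurements; E2F-specific signal taken as firefly over Renilla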
- Direction: E2F firefly: higher = more E2F reporter activity; Renilla normaliser: higher = more normaliser reporter signal
- Call rule: 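Called active if the normalised E2F reporter went up by over 50%; the cutoff is arbitrary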

target | reagent no. | E2F firefly, rep 1 | Renilla normaliser, rep 1
CG33332 | 1 | 1.28e5 | 7009
CG9004 | 1 | 94409 | 4208
Ppm1 | 1 | 93615 | 4503
CG7423 | 1 | 1.32e5 | 6272
tsu | 1 | 1.59e5 | 4600
mop | 1 | 73747 | 3633
HERC2 | 1 | 1.34e5 | 6070
ppk10 | 1 | 91753 | 6516
CG15369 | 1 | 1.32e5 | 5729
CG12825 | 1 | 1.42e5 | 4210
bcd | 1 | 71246 | 3118
CG9289 | 1 | 1.41e5 | 5011
Camp | 1 | 1.41e5 | 4387
GatA | 1 | 72081 | 3207
CG7328 | 1 | 1.38e5 | 6493
CG6733 | 1 | 1.07e5 | 5893
CG1907 | 1 | 1817 | 924
CG31538 | 1 | 71962 | 4258
CG14764 | 1 | 1.34e5 | 5697
CG14764 | 2 | 3150 | 225
CG14764 | 3 | 1.35e5 | 5019
CG14708 | 1 | 1.31e5 | 6197
Or85a | 1 | 1.42e5 | 6553
rempA | 1 | 1.78e5 | 5551
Jupiter | 1 | 73442 | 3863
Jupiter | 2 | 1.53e5 | 6766
Jupiter | 3 | 1.43e5 | 6162
stum | 1 | 1.19e5 | 4719
stum | 2 | 1.12e5 | 4986
CG14668 | 1 | 1.42e5 | 6062
CG14177 (retired record) | 1 | 92276 | 4318
Tsp42Ep | 1 | 81425 | 3606
Oatp30B | 1 | 81898 | 3499
pn | 1 | 1726 | 932
wdn | 1 | 1530 | 880
CG15861 | 1 | 1.33e5 | 5513
sip1 | 1 | 1.34e5 | 5055
CG11145 | 1 | 1.38e5 | 4737
CG9360 | 1 | 32965 | 3268
CG9525 | 1 | 1.50e5 | 5179
CG14835 | 1 | 1.07e5 | 4132
Atg1 | 1 | 82673 | 3721
Atg1 | 2 | 1.53e5 | 7820
Sox15 | 1 | 87283 | 4279
CG45105 | 1 | 96784 | 4951
CG45105 | 2 | 72859 | 6048
RpL11 | 1 | 55081 | 3601
CG3085 | 1 | 74522 | 3191
Torsin | 1 | 43947 | 3118
CG1428 | 1 | 1.14e5 | 4363
CG17470 | 1 | 84398 | 3578
pyd3 | 1 | 78615 | 3211
Ntf-2 | 1 | 1.32e5 | 4470
CG10874 | 1 | 1.81e5 | 5638
RhoGAP92B | 1 | 1.43e5 | 7482
RhoGAP92B | 2 | 1.28e5 | 5972
Kaz-m1 | 1 | 1.07e5 | 5760
CG4409 | 1 | 1.40e5 | 4397
MED22 | 1 | 53805 | 4294
Mpi | 1 | 1.44e5 | 7323
Sgt | 1 | 71659 | 3234
CG14646 | 1 | 84366 | 3776
CG5653 | 1 | 91762 | 3628
Mcm2 | 1 | 1.23e5 | 4624
CG14965 | 1 | 76972 | 3408
Bx | 1 | 91834 | 4291
CG14297 | 1 | 1.55e5 | 10171
comm | 1 | 1.88e5 | 7570
CG13398 | 1 | 1.49e5 | 5185
Naa60 | 1 | 1.32e5 | 7043
CG12817 | 1 | 1.59e5 | 6796
CG34198 | 1 | 1.74e5 | 6132
CG34176 | 1 | 1.33e5 | 5195
CG42674 | 1 | 52881 | 3312
CG42674 | 2 | 1.22e5 | 5651
CG42674 | 3 | 1.30e5 | 6994
CG31681 | 1 | 1.29e5 | 5308
CG11596 | 1 | 1685 | 988
CG34032 (retired record) | 1 | 1.24e5 | 4737
CG14204 | 1 | 1.19e5 | 7760
RhoGEF4 | 1 | 70250 | 3935
CG34382 | 1 | 1.34e5 | 4880
CG34382 | 2 | 1.02e5 | 5375
CG34382 | 3 | 98225 | 3561
Lap1 | 1 | 88792 | 4258
Atg16 | 1 | 2107 | 832
Atg16 | 2 | 1.25e5 | 6538
Atg16 | 3 | 1.32e5 | 6840
CG7432 | 1 | 1.36e5 | 7619
Nap1 | 1 | 82460 | 3434
Polr1H | 1 | 69790 | 3704
tth | 1 | 8723 | 720
CG5139 | 1 | 1.72e5 | 6145
eff | 1 | 1.68e5 | 6660
ATPsynbetaL | 1 | 1.33e5 | 7898
Argp | 1 | 1.21e5 | 6641
CG11398 | 1 | 1.13e5 | 5864
CG31245 | 1 | 1.43e5 | 5688
CG6696 | 1 | 1.29e5 | 5297
CG1998 | 1 | 7284 | 411
Prim2 | 1 | 67704 | 3252
CG9135 | 1 | 82234 | 3759
Rab3-GAP | 1 | 80953 | 3865
CG12947 | 1 | 1.46e5 | 6652
Oatp33Ea | 1 | 62267 | 3383
AstA | 1 | 1.12e5 | 5333
beat-Ib | 1 | 97532 | 4416

Already shown: entries from further up.
target | reagent no. | E2F firefly, rep 1 | Renilla normaliser, rep 1
Lap1 | 1 | 88792 | 4258
Atg16 | 1 | 2107 | 832
Atg16 | 2 | 1.25e5 | 6538
Atg16 | 3 | 1.32e5 | 6840
CG7432 | 1 | 1.36e5 | 7619
Nap1 | 1 | 82460 | 3434
Polr1H | 1 | 69790 | 3704
tth | 1 | 8723 | 720
CG5139 | 1 | 1.72e5 | 6145
eff | 1 | 1.68e5 | 6660
ATPsynbetaL | 1 | 1.33e5 | 7898
